In PubChem BioAssay AID1487 (National Center for Advancing Translational Sciences (NCATS), 2009):
Several values for one entry are separate records, joined by “and”; a condition that tells them apart may be missing. Equal entries are not always repeated. Some of the results follow. Further columns of the screen follow, without active or inactive calls. Most of these compounds were active or inconclusive in the main read-out, so they are no random draw. Words in brackets tell the shape of the fitted curve; partial curves, single points and poor fits give uncertain potencies.

Assay: qHTS Assay for Modulators of Lamin A Splicing
Conditions: HeLa LMNA splicing GFP/RFP minigene ratio, 48 h
Procedure, shortened: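 S3 HeLa cells stably expressing lamin A-EGFP splicing minigene plus DsRed2, 600 cells/well, 48 h compound exposure at 37C. Laser-scanning cytometry; analysed as GFP (500-530 nm)/RFP (575-640 nm) total intensity ratio; 0.5% DMSO vehicle.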

[1] = measured here: GFP splicing reporter channel
[2] = measured here: RFP viability control channel

| Structure (SMILES) | AC50 [1] | AC50 [2] |
| --- | --- | --- |
| Cc1sc2ncnc(SCC(=O)c3ccc4c(c3)OCCO4)c2c1-c1ccccc1 | 2 µM [rising, full curve, poor fit] | 3.16 µM [rising, full curve] |
| Cc1ccc(NS(=O)(=O)c2ccc(NC(=O)CN(c3cc([N+](=O)[O-])ccc3C)S(C)(=O)=O)cc2)c(C)c1 | 35.5 µM [falling, single point] | 35.5 µM [falling, single point] |
| COc1ccc(/C=N/NC(=O)CN(C2=NS(=O)(=O)c3ccccc32)c2ccccc2)cc1OC | 11.2 µM [rising, partial curve, poor fit] | 14.1 µM [rising, partial curve, poor fit] |
| CCCCOc1ccc(CSc2ncn[nH]2)cc1 | 15.8 µM [rising, partial curve] | 35.5 µM [rising, single point] |
| Cc1c(C(=O)NCC2COc3ccccc3O2)oc2ccc(S(=O)(=O)N3CCOCC3)cc12 (centres undefined) | – | 10 µM [rising, partial curve, poor fit] |
| CCOC(=O)CC(NC(=O)c1cc2ccccc2oc1=O)c1cccc([N+](=O)[O-])c1 (centres undefined) | – | 0.562 µM [rising, full curve, poor fit] |
| Cc1ccc(Cn2nc(C)c(NC(=O)c3noc4c3CCCCC4)c2C)cc1 | – | 10 µM [rising, partial curve] |
| Cc1cc(NS(=O)(=O)c2ccc(Nc3nc(-c4ccc(C)c(C)c4)cs3)cc2)no1 | – | 35.5 µM [rising, single point] |
| CC(C)(C)N(Cc1ccccc1)C(=O)c1ccc(Br)o1 | – | 3.55 µM [falling, partial curve, poor fit] |
| Clc1cc(Br)ccc1OCCCn1ccnc1 | – | 25.1 µM [rising, single point] |
| COc1ccc(Cc2nnc(N)s2)cc1 | 35.5 µM [falling, single point] | 35.5 µM [falling, single point] |
| COc1ccc(NC(=O)c2cc3cc(C)ccc3[nH]2)cc1 | 1.41 µM [rising, partial curve] | – |
| CC1=C(C#N)C(=O)NC(=O)/C1=C/c1ccc(-c2ccc(S(N)(=O)=O)cc2)o1 | 0.794 µM [falling, single point] | – |
| CCCCCc1nnc(NC(=O)c2ccc(=O)n(C)n2)s1 | 6.31 µM [rising, partial curve] | 0.00316 µM [rising, full curve, poor fit] |
| O=C1c2ccccc2C(=O)N1c1ccc(S(=O)(=O)N2CCN(c3ccccc3)CC2)cc1 | – | 0.0178 µM [falling, full curve, poor fit] |
| Cc1[nH]nc(Sc2ccccn2)c1[N+](=O)[O-] | 0.398 µM [falling, full curve, poor fit] | 0.891 µM [falling, full curve] |
| CSc1ccccc1-c1nnc(NC(=O)c2ccc3c(c2)OCCO3)o1 | – | 5.01 µM [rising, partial curve] |
| Cc1c(C(=O)N2CCCCCC2)c(S(=O)(=O)NCc2ccccc2)c(C)n1C | 0.0708 µM [falling, full curve, poor fit] | – |
| CCOc1ccccc1NC(=O)Cn1c(=O)sc2ccccc21 | 0.501 µM [rising, full curve] | – |

| Structure (SMILES) | AC50 [1] | AC50 [2] |
| --- | --- | --- |
| CCCCN(CCCC)C1=Nc2ccccc2N/C1=C(/C#N)C(=O)OCC | 7.08 µM [rising, partial curve] | – |
| CCCNC(C)C(=O)Nc1ccccc1C (centres undefined) | – | 25.1 µM [falling, partial curve] |
| CC[n+]1c(/C=C2\Sc3ccccc3N2C)ccc2cccc(C)c21 | 5.62 µM [rising, single point] | – |
| CC(=O)N1CCc2c(sc3c2c(=O)n(-c2ccccc2)c(=O)n3CC(=O)Nc2cc(C)cc(C)c2)C1 | 6.31 µM [falling, partial curve] | – |
| N#CC(c1ccccc1)c1ccc(C(=O)c2ccc(F)cc2)cc1 (centres undefined) | – | 20 µM [rising, single point] |
| COc1ccc(CN(CCN(C)C)c2ccccn2)cc1 | – | 1.12 nM [rising, full curve, poor fit] and 79.4 nM [rising, full curve, poor fit] |
| Cc1ccc(-n2nc(C(=O)N3CCN(c4ccccc4F)CC3)c(=O)n(C)c2=O)cc1 | 0.0126 µM [falling, full curve, poor fit] | – |
| Nc1ncn([C@@H]2O[C@H](CO)[C@@H](O)[C@H]2O)c(=O)n1 | 2.51 µM [falling, full curve] | 1.58 µM [falling, full curve] and 5.62 µM [falling, full curve] |
| CC(=O)N1C(=S)NC(=O)/C1=C1/C(=O)N(CC(=O)Nc2cccc(C)c2)c2ccccc21 | – | 0.282 µM [rising, full curve, poor fit] |
| Cc1cc(C(F)(F)F)n(-c2nc(C(=O)Nc3ccccc3Oc3ccccc3)cs2)n1 | – | 0.282 µM [falling, single point] |
| Clc1ccccc1CSc1nnc(-c2ccccn2)n1Cc1ccco1 | 11.2 µM [rising, partial curve] | 10 µM [rising, partial curve] |
| Nc1ccc(N2CCN(C(=O)c3cccs3)CC2)cc1 | 10 µM [falling, partial curve] | – |
| CCOc1ccc(CNC(=O)CCc2c(C)nn(-c3ccc(N4CCCCC4)nn3)c2C)cc1 | – | 2.24 µM [falling, partial curve] |
| Cc1nc(N)sc1-c1csc(NCc2ccccc2)n1 | – | 0.178 µM [falling, full curve, poor fit] |
| Cn1c2c(c(O)c(-c3ccccc3)c1=O)C(=O)CC(C)(C)C2 | – | 3.16 µM [rising, full curve, poor fit] |
| N#CCCN1CCN(S(=O)(=O)c2ccc(S(=O)(=O)NC3CCCCC3)cc2)CC1 | 0.282 µM [falling, full curve, poor fit] | – |
| Cc1cc(/C=C2\SC(=Nc3ccc(F)cc3)NC2=O)c(C)n1-c1ccc(S(N)(=O)=O)cc1 | – | 3.55 µM [rising, single point] |
| O=S(=O)(NCCc1csc(-c2ccc(C(F)(F)F)cc2)n1)c1ccc2c(c1)OCCO2 | 12.6 µM [rising, partial curve] | 12.6 µM [rising, partial curve] |
| [O-]/C(=C(\C(=S)Nc1ccc(Cl)cc1)[n+]1ccccc1)c1ccc(OC(F)F)cc1 | 22.4 µM [falling, single point] | 15.8 µM [falling, single point] |

At a glance, 5 of the compounds above:

| Structure (SMILES) | AC50 [1] | AC50 [2] |
| --- | --- | --- |
| Nc1ncn([C@@H]2O[C@H](CO)[C@@H](O)[C@H]2O)c(=O)n1 | 2.51 µM [falling, full curve] | 1.58 µM [falling, full curve] and 5.62 µM [falling, full curve] |
| CC(=O)N1C(=S)NC(=O)/C1=C1/C(=O)N(CC(=O)Nc2cccc(C)c2)c2ccccc21 | – | 0.282 µM [rising, full curve, poor fit] |
| Cc1cc(C(F)(F)F)n(-c2nc(C(=O)Nc3ccccc3Oc3ccccc3)cs2)n1 | – | 0.282 µM [falling, single point] |
| Clc1ccccc1CSc1nnc(-c2ccccn2)n1Cc1ccco1 | 11.2 µM [rising, partial curve] | 10 µM [rising, partial curve] |
| Nc1ccc(N2CCN(C(=O)c3cccs3)CC2)cc1 | 10 µM [falling, partial curve] | – |

(next part)

| Structure (SMILES) | AC50 [1] | AC50 [2] |
| --- | --- | --- |
| Cc1cc(Nc2cccc(Cl)n2)n(-c2ccccc2)n1 | – | 35.5 µM [rising, single point] |
| Cc1ccc(-c2nnc(SCC(=O)NC3CCCc4ccccc43)n2N)cc1 (centres undefined) | 11.2 µM [rising, partial curve] | 25.1 µM [rising, single point] |
| COc1ccc(CCNC(=O)/C(C#N)=C/c2cccc(OCc3ccccc3)c2)cc1OC | 17.8 µM [rising, single point] | 22.4 µM [rising, single point] |
| CCn1nnnc1SCC(=O)N(C1CCCCC1)C1CCCCC1 | 7.08 µM [rising, partial curve] | 5.62 µM [rising, full curve] |
| Cc1[nH]c2ccc(-c3n[nH]c(=S)n3Cc3ccccc3)cc2c1C | – | 35.5 µM [rising, single point] |
| CCOc1ccc(C(=O)NC(=S)NC2CCCC2)cc1[N+](=O)[O-] | 14.1 µM [rising, partial curve] | 31.6 µM [rising, single point] |
| O=C(c1ccccc1)N1CCN(Cc2ccccc2Br)CC1 | – | 3.16 µM [rising, full curve] |
| O=C(CN(C(=O)CSc1nnc(COc2ccccc2)o1)c1ccc(F)cc1)NC1CCCC1 | – | 15.8 µM [rising, single point] |
| Cc1cccc(-c2n[nH]c(=S)n2/N=C/c2ccc(C)o2)c1 | 22.4 µM [rising, single point] | – |
| Cc1cccc(N=N/C(=C\O)C(=O)c2ccc(Br)cc2)c1 | 35.5 µM [falling, single point] | 5.62 µM [falling, partial curve] |
| Cc1cccc(NC(=O)COc2ccc(Br)cc2C)n1 | 15.8 µM [rising, single point] | 17.8 µM [rising, single point] |
| CCSC(=N)N | 0.00447 µM [falling, full curve, poor fit] | – |
| O=C(CCc1ccc(S(=O)(=O)N2CCOCC2)cc1)Nc1ccc2ccccc2c1 | – | 25.1 µM [rising, single point] |
| Cc1ccc(-n2c(=O)c3ccccc3n(CC(=O)C(C)(C)C)c2=O)cc1 | 0.794 µM [rising, single point] | – |
| O=C(Nc1cccc([N+](=O)[O-])c1)c1[nH]ncc1Cl | 14.1 µM [rising, partial curve] | 14.1 µM [rising, single point] |
| COc1ccc(CCNC(=O)c2cnc3scc(C)n3c2=O)cc1OC | – | 0.708 µM [rising, full curve] |
| CCc1ccc(-c2cc(C(=O)N/N=C/c3c[nH]c4ccccc34)[nH]n2)cc1 | – | 25.1 µM [rising, single point] |
| CSCCC(NC(=O)c1ccccc1)c1nc(-c2ccccc2)no1 (centres undefined) | – | 12.6 µM [rising, partial curve] |
